{"source": "PubChem BioAssay AID1347423", "about": "(Functional Genomics Laboratory (NCATS/FGL), 2020)", "note": "Screen size: about 52,000 sequences; about 210 (0.4%) were called active.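 The calls were made as follows: active = gene whose silencing raises cell survival under the drug, median off-target-corrected z-score across its silencing RNAs 2 or more; inactive = the rest.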 Some of the results follow.", "data": [{"assay": "Resistance to Poly (ADP-Ribose) Polymerase inhibitor: Gene Identification via Genome-wide siRNA Screen", "conditions": "mouse BRCA2 R2336H ES cells, olaparib, CellTiter-Glo viability; stronger effect = higher value", "summary_of_the_method": "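Mouse BRCA2 R2336H ES cells were reverse-transfected with siRNA (20 nM final), treated at 48 h with 500 nM olaparib, and read by CellTiter-Glo after 72 h. Scores: MAD-based z per siRNA, median per gene, seed off-target correction.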", "values": [{"sequence": "CGGAAUCGAAACUUAAUUUTT against Efcbp1", "z-score": "inactive: -0.0404"}, {"sequence": "GGCACUCAGGCUUAAUCAUTT against 9530003J23Rik", "z-score": "inactive: -0.232"}, {"sequence": "GGCCUGGAAACGUAUUUACTT against Snx24", "z-score": "inactive: -0.267"}, {"sequence": "GCAAAUGAUUCUUGUCAAATT against Cog7", "z-score": "inactive: -0.328"}, {"sequence": "GACUGUAAUGAAGCAUUUATT against Rad21", "z-score": "inactive: -3.09"}, {"sequence": "GCGAAACGCAACAUAGUCATT against Gpr74", "z-score": "inactive: 1.27"}, {"sequence": "GCUUGAGAUAAGUGGGUUUTT against 2610510H03Rik", "z-score": "inactive: -1.55"}, {"sequence": "GGUUUCACUGACAAAACUATT against Zim1", "z-score": "inactive: 0.905"}, {"sequence": "CGCAUCAACACCUUCGUGATT against Kcnk3", "z-score": "inactive: 1.18"}, {"sequence": "GCUCUUAAAACCCACCUGATT against Zfp336", "z-score": "inactive: -0.147"}, {"sequence": "CCGAAGCCUAAGGUCCAAATT against Rpl29", "z-score": "inactive: 0.919"}, {"sequence": "CCCUUCUCUGAGACAACACTT against Tcirg1", "z-score": "inactive: -0.256"}, {"sequence": "CCUGAGAUCAAGAACGACATT against Crat", "z-score": "inactive: 0.319"}, {"sequence": "GGUGAUGCUUCAUAAAAAUTT against 4732497O03Rik", "z-score": "inactive: 1.12"}, {"sequence": "GGUUUCGGAUAAAGCCAAUTT against Wif1", "z-score": "inactive: 1.2"}, {"sequence": "GCAUCCUAGAGGAUCAAUCTT against Smarcb1", "z-score": "inactive: -2.25"}, {"sequence": "CCAUCUCAUCCCACGACACTT against Mrgprc11", "z-score": "inactive: 0.653"}, {"sequence": "GGAGAUCUUCGAUGACAAUTT against Dvl1", "z-score": "inactive: -0.164"}, {"sequence": "CCCUCCAAAAGAAGACUAUTT against Sh3md1", "z-score": "inactive: -1.04"}, {"sequence": "CGACUGGUCUUGAUUGUUATT against Hist1h2ac", "z-score": "inactive: 0.887"}, {"sequence": "GGGAGUUGAGAAGACAUAATT against Lim2", "z-score": "inactive: 0.544"}, {"sequence": "GCGGGAGAAGCUAAUGAAATT against Ndufs5", "z-score": "inactive: 0.883"}, {"sequence": "GGAACCUUAGUGGAGGAUATT against Icos", "z-score": "inactive: 0.378"}, {"sequence": "CCUUAAAACAGAUCCACUUTT against Nell2", "z-score": "inactive: 0.818"}, {"sequence": "GCUCAUUGACAGUAUCAGCTT against Apxl", "z-score": "inactive: 0.805"}, {"sequence": "CGAUCUAGUCCGCCAUUACTT against Lck", "z-score": "inactive: -1.53"}, {"sequence": "CCAGGAUCAUUCUUCUGAATT against Chrna7", "z-score": "inactive: 0.733"}, {"sequence": "GGUAAAGGGUUCUUGGACATT against Eps15-rs", "z-score": "inactive: -1.46"}, {"sequence": "GGAGAGUCCAGUUUCCAUUTT against 2810428C21Rik", "z-score": "inactive: 1.11"}, {"sequence": "GGACCUCAUGAGAAAUAUGTT against Wbscr17", "z-score": "inactive: -0.841"}, {"sequence": "GGAAGGACACACAUCCACUTT against Tpt1h", "z-score": "inactive: -1.37"}, {"sequence": "GGAAGGAGCUUCGAAAAAATT against Pex16", "z-score": "inactive: 0.0138"}, {"sequence": "CGAAACUCCCAUUGUUAAUTT against Zfp521", "z-score": "inactive: -0.294"}, {"sequence": "CCCAUACUAUGCCAGGACATT against B130055A05Rik", "z-score": "inactive: -1.73"}, {"sequence": "GGCGAGUUUUCCUCUUCAGTT against Sync", "z-score": "inactive: 0.265"}, {"sequence": "CGAAGAUAAUUAUGGAGCCTT against 6030410K14", "z-score": "inactive: -0.166"}, {"sequence": "GGGUAUACCCAACUUUUACTT against Hhex", "z-score": "inactive: 1.84"}, {"sequence": "GCAGUAAGUCAGUGCCUCATT against Sca1", "z-score": "inactive: 1.57"}, {"sequence": "CCAACCAAUAGUUCUAUACTT against Ppp3r2", "z-score": "inactive: 0.442"}, {"sequence": "GGUCCAACCUUAUUGAAUGTT against Tlr6", "z-score": "inactive: 0.522"}, {"sequence": "GCGACUGACCUUCAAACUGTT against 9230101H05Rik", "z-score": "inactive: 0.919"}, {"sequence": "CCCAAUUUGUAUCAGAGGGTT against 4632425D07Rik", "z-score": "inactive: -0.566"}, {"sequence": "GUCUUGACCUUUGUAACUGTT against Olfr197", "z-score": "inactive: -0.228"}, {"sequence": "GGCUUGUCGUCCUGGUGUATT against 4930535B03Rik", "z-score": "inactive: -1.54"}, {"sequence": "GGAGGACGAGAACAGUAAGTT against Hcngp", "z-score": "inactive: -1.44"}, {"sequence": "GCUCAUUGAGAUAUCACAATT against Cabp2", "z-score": "inactive: 0.647"}, {"sequence": "GGCUUUACUACUCAACCAUTT against Gjb3", "z-score": "inactive: -0.0659"}, {"sequence": "GGAAACUGUUUUAGAUAAGTT against Tdrd6", "z-score": "inactive: -0.595"}, {"sequence": "GGAAUCAGAGUUUAAGUACTT against 1500040F11Rik", "z-score": "inactive: -0.59"}, {"sequence": "GGAGGGAAUAGAGAAUCGGTT against A930024E05Rik", "z-score": "inactive: 0.547"}, {"sequence": "GGAAUCUCUUUUCUUGCAUTT against 6330569M22Rik", "z-score": "inactive: 0.903"}, {"sequence": "CCUGAACAGAUUGAAGAGUTT against Myl3", "z-score": "inactive: 1.6"}, {"sequence": "GGGACUAACUUUCACCAGGTT against Wdr8", "z-score": "inactive: 0.234"}, {"sequence": "GGUCAUCCCAUCUUACAAATT against 4.93E+26", "z-score": "inactive: -0.326"}, {"sequence": "GGUAGACUUGAAGAAGUCATT against AI452372", "z-score": "inactive: 0.661"}, {"sequence": "GGUUCUGCUGGACAACUUUTT against Cyp46a1", "z-score": "inactive: -1.02"}, {"sequence": "GGCACAAUUGAGGAGCGUATT against 4632409L19Rik", "z-score": "inactive: 0.583"}, {"sequence": "GGUUCAGACGACAAGCAGATT against 9530068E07Rik", "z-score": "inactive: -0.31"}, {"sequence": "GGCCACCUAUGAUGGAAAUTT against Kdelr2", "z-score": "inactive: -0.317"}, {"sequence": "CCUAAAUAUCCAAGACAUUTT against Mcm3", "z-score": "inactive: -0.726"}, {"sequence": "GGUCACCGAUGACUACAUCTT against Ccr7", "z-score": "inactive: 0.0544"}, {"sequence": "GGCCAUAUUUGUUGUUGUUTT against 1810007E14Rik", "z-score": "inactive: 0.553"}, {"sequence": "GCCUUUCGAACUUGGUUCGTT against E430004F17Rik", "z-score": "inactive: -0.304"}, {"sequence": "GCCAACCUUAACUAUUAAGTT against F2rl2", "z-score": "inactive: -0.241"}, {"sequence": "GUGACUCCAGUCGUGUCUATT against 2310021H06Rik", "z-score": "inactive: 1.4"}, {"sequence": "GGCAUUUCUUUCACUAGCUTT against Olfr618", "z-score": "inactive: 1.6"}, {"sequence": "GGUCUGAACAGAAGAUUUGTT against Pdlim1", "z-score": "inactive: 0.253"}, {"sequence": "GGUUAAUAAUGCGACAGCATT against A2bp1", "z-score": "inactive: 1.27"}, {"sequence": "GGCGCAUUACCAGAGCUUCTT against Tnpo2", "z-score": "inactive: 1.15"}, {"sequence": "GCCGCUGGUUCAUUAUCACTT against Tbx2", "z-score": "inactive: 0.502"}, {"sequence": "GGUCUUCAUAUUUCUUGCUTT against Olfr10", "z-score": "inactive: 3.1"}, {"sequence": "GGCAAUAUGUCGUAUGUAATT against Sfmbt2", "z-score": "inactive: 0.359"}, {"sequence": "GGACCUCACAAUGAGUAUGTT against Thtpa", "z-score": "inactive: -0.87"}, {"sequence": "GCAAUUCUGUGUUCAUCCGTT against Phex", "z-score": "inactive: 0.825"}, {"sequence": "GGGAUGGGAUAGGGACAUATT against A330090H18", "z-score": "inactive: -0.744"}, {"sequence": "GGGAUGGUGAUGGUGAAAGTT against Qprt", "z-score": "inactive: -1.68"}, {"sequence": "GGCCCUUCUGGACUAUCAUTT against 4932423M01Rik", "z-score": "inactive: 0.644"}, {"sequence": "GGAAGUAGAAGUGAGUGAATT against 2700088M22Rik", "z-score": "inactive: 0.212"}, {"sequence": "GGUUAACGAUGAAGAUGUATT against Rab23", "z-score": "inactive: -1.71"}, {"sequence": "GGCUGAAAUUGACAAGUUGTT against Ing4", "z-score": "inactive: 0.534"}, {"sequence": "CCUCUCCAGUGUCGACAUUTT against Olfr51", "z-score": "inactive: 0.558"}, {"sequence": "CCCAUGCUUAUUACCGAGATT against Rab37", "z-score": "inactive: 0.67"}, {"sequence": "GCUCCAUCAGCAAUACAAATT against D4Ertd478e", "z-score": "inactive: -1.61"}, {"sequence": "GCCUAUCACAUCUUAUCUGTT against 4930503B20Rik", "z-score": "inactive: 0.16"}, {"sequence": "GGCUUUCCAGUGGAAUUCCTT against 2700022J23Rik", "z-score": "inactive: 1.65"}, {"sequence": "GCCUAAGACCAACUGGCAATT against Theg", "z-score": "inactive: -1.01"}, {"sequence": "GCCUUUGCGCAAAAUGGUCTT against MGC67181", "z-score": "inactive: 0.541"}, {"sequence": "GGAGGGCAUGGAGAACAUGTT against Pkn3", "z-score": "inactive: 0.25"}, {"sequence": "CCAAAGCCAGCAAAUAAACTT against Scnn1g", "z-score": "inactive: 0.673"}, {"sequence": "GGUGGAACCUAUGUACUUUTT against Cygb", "z-score": "inactive: 0.92"}, {"sequence": "GGACGAAAUCUUGUCUGAUTT against Apg4b", "z-score": "inactive: -1.48"}, {"sequence": "GGAAGAGGAGGAGCUGAUGTT against Speer4f", "z-score": "inactive: 1.26"}, {"sequence": "GGUUCUGAAAGCAAACAAATT against Fgf18", "z-score": "inactive: 1.19"}, {"sequence": "GCUUCACUCCACCUUUCAGTT against Prkcc", "z-score": "inactive: 0.37"}, {"sequence": "CCCUAGCUAUCAAGAUAUUTT against Hace1", "z-score": "inactive: 1.13"}, {"sequence": "GGACCUAAAGAUUAUCUUATT against Rgs4", "z-score": "inactive: 1.35"}, {"sequence": "GGAUGCAAUCGACAUGGAGTT against Atp5f1", "z-score": "inactive: -0.289"}, {"sequence": "CAGCGGCCGCGCUUCACCGTT against 4930404N11Rik", "z-score": "inactive: 0.693"}, {"sequence": "GCAGAUCGCAAAAGAUCCUTT against Nppa", "z-score": "inactive: -0.265"}, {"sequence": "GGGCUUCACCCUCAUACAATT against A530088H08Rik", "z-score": "inactive: 0.845"}, {"sequence": "GGGUCGAUUGUCAAUAUCATT against Pecr", "z-score": "inactive: 0.631"}, {"sequence": "GGAAUGAAAGUUCCACUAUTT against Emcn", "z-score": "inactive: 0.651"}, {"sequence": "GCAAAUCGGCCAAGAGAUGTT against Vti1a", "z-score": "inactive: -0.00161"}, {"sequence": "GGAAGCCAUCAUGAAAAUGTT against Tex27", "z-score": "inactive: 0.472"}]}]}
